Assay results taken from US20220175920A1.
Results are given in words; binding and its absence hold for the method and conditions named. Some results given as binding are weak or reduced against the parent protein; the word gives no strength.

Protein sequences, listed by entry. Tags and fused reporters are not part of them. Lines headed by an entry give the natural chain unless they say otherwise; changes in a name come on top.
UniProt P25942: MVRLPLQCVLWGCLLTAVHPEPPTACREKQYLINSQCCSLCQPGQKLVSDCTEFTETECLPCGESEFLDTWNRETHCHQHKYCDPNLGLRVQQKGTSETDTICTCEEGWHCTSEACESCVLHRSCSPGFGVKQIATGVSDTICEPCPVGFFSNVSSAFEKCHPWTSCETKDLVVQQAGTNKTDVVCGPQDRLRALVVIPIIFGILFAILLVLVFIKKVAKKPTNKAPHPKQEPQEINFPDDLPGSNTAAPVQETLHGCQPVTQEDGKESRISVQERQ

Columns and labels:
[1] = molecular target: CD40 E28A FAS (mutated CD40 ectodomain fused to FAS) on CHO cells (human); experiment: flow cytometry on CHO cells expressing CD40 E28A FAS (FIG. 19)
[2] = molecular target: CD40 R27A FAS (mutated CD40 ectodomain fused to FAS) on CHO cells (human); experiment: flow cytometry on CHO cells expressing CD40 R27A FAS (FIG. 19)
[3] = molecular target: human CD40 on cells (B cells, MDDCs, stably transfected CHO cells) (human) (UniProt P25942); experiment: flow cytometry, stably transfected CHO cells, 1 h on ice, goat anti-human IgG-PE, % of events in gate P1 [panel CD40 CHO]
[4] = molecular target: human CD40 ectodomain fused to FAS transmembrane and intracellular domains, on CHO cells (human); experiment: flow cytometry, stably transfected CHO cells, 1 h on ice, goat anti-human IgG-PE, % of events in gate P1 [panel WT CD40-FAS CHO]
[5] = molecular target: CD40 E28A FAS (mutated CD40 ectodomain fused to FAS) on CHO cells (human); experiment: flow cytometry, stably transfected CHO cells, 1 h on ice, goat anti-human IgG-PE, % of events in gate P1 [panel CD40 E28A FAS CHO]
[6] = molecular target: CD40 R27A FAS (mutated CD40 ectodomain fused to FAS) on CHO cells (human); experiment: flow cytometry, stably transfected CHO cells, 1 h on ice, goat anti-human IgG-PE, % of events in gate P1 [panel CD40 R27A FAS CHO]

Measured: binding

B1: anti-CD40 11B6 human IgG4 antibody (antibody, V domains shown)
VH: EVQLVQSGAEVKKPGASVKISCKASGYSFTGYYMHWVKQAHGQGLEWIGRINPYNGATSYNQNFKDRATLTVDKSTSTAYMELSSLRSEDTAVYYCAREDYVYWGQGTTVTVSS
VL: DVVMTQSPLSLPVTLGQPASISCRSSQSLVHSNGNTYLHWYQQRPGQSPRLLIYKVSNRFSGVPDRFSGSGSGTDFTLKISRVEAEDVGVYFCSQSTHVPWTFGGGTKLEIKR
binds: all assays above

B2: anti-CD40 12E12 human IgG4 antibody (antibody, V domains shown)
VH: EVQLVESGGGLVQPGGSLKLSCATSGFTFSDYYMYWVRQAPGKGLEWVAYINSGGGSTYYPDTVKGRFTISRDNAKNTLYLQMNSLRAEDTAVYYCARRGLPFHAMDYWGQGTLVTVSS
VL: DIQMTQSPSSLSASVGDRVTITCSASQGISNYLNWYQQKPGKAVKLLIYYTSILHSGVPSRFSGSGSGTDYTLTISSLQPEDFATYYCQQFNKLPPTFGGGTK
not listed: [3]
binds: all other assays above
